PubChem BioAssay AID743454 – Peter MacCallum Cancer Centre | 2014

- Test: 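Knock-downs lowering viability or raising caspase 3/7 activity in vorinostat-treated resistant cells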 (primary screen)
- Cells: human HCT116-VR colon cancer cells, selected for vorinostat resistance
- Reagents: siRNA pool against human genes, 40 nM siRNA pool
- Timing: vorinostat for 24 h, read-out about 72 h after transfection
- Treatment: vorinostat at 2.5 µM final
- Read-out: 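Two measures, CellTiter-Fluor viability and luminescent caspase 3/7 activity, each as fold change against same-plate mock wells, mean of duplicates, then screen-wide robust z-score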
- Reading the numbers: viability robust z-score: higher = more viable cells than screen typical; caspase robust z-score: higher = more caspase 3/7 activity than screen typical
- Call rule: 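a knock-down is a hit when classed RV1 or RV2 for lowered viability, or CA1 or CA2 for caspase activation; those lethal without drug were dropped; hits were retested singly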
The whole screen tested about 18,000 reagents; shown is a random part of them. 450 of them (2.5%) count as active. 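Single biological run; no consistent viability z cut-off exists, so the class columns, not z-scores, define the calls.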

no.	Gene	PubChem SID	viability hit class	caspase hit class	viability robust z-score	caspase robust z-score	activity call
1	OR52B6	SID135624605	no change	no change	0.46	-0.6	inactive
2	PTGFRN	SID152150765	no change	no change	0.36	-0.87	inactive
3	LGALS12	SID134315176	no change	no change	0.86	0.46	inactive
4	GPR3	SID134310187	no change	no change	-1.74	-0.36	inactive
5	APBA1	SID134321349	no change	no change	1.17	-0.15	inactive
6	PRMT8	SID152148918	no change	no change	-0.94	-0.88	inactive
7	SIGLEC12	SID134317655	no change	no change	1.02	0.34	inactive
8	TP53BP2	SID152153385	no change	no change	0.48	-0.22	inactive
9	SLC39A10	SID152150363	no change	no change	0.96	-0.04	inactive
10	PAQR5	SID135621492	no change	no change	-0.32	-0.78	inactive
11	SLC4A2	SID135621414	no change	no change	-0.43	-0.64	inactive
12	TRAK2	SID134318318	no change	no change	0.29	1.4	inactive
13	FLT1	SID152149290	no change	no change	2.02	1.34	inactive
14	CFAP299	SID134319957	no change	no change	-2.17	0.3	inactive
15	ADCK2	SID56478993	no change	no change	0.26	0.46	inactive
16	TRAPPC6A	SID134318474	no change	no change	-1.2	0.39	inactive
17	EGLN3	SID152151229	no change	no change	0.9	0.18	inactive
18	CA9	SID135620961	no change	no change	1.06	0.81	inactive
19	PHGDH	SID152153003	no change	no change	1.7	0.91	inactive
20	C14orf93	SID134318180	no change	no change	-0.11	2.56	inactive
21	TNFRSF25	SID135620833	no change	no change	-0.46	-0.3	inactive
22	SLC49A3	SID134322453	no change	no change	-0.13	0.08	inactive
23	DNAJA2	SID152152037	RV2 (reduced viability)	no change	-3.51	3.47	active
24	PLAG1	SID134315699	no change	CA2 (caspase activation)	-2.7	5.63	active
25	PAX2	SID152153258	no change	no change	0.34	-0.5	inactive
26	NKAPD1	SID152150910	no change	no change	-0.54	0.64	inactive
27	CLN8	SID135622498	no change	no change	1.66	0.15	inactive
28	OPLAH	SID152151290	no change	no change	0.5	3.94	inactive
29	MRPL55	SID135623667	no change	no change	0.76	-0.76	inactive
30	SSR2	SID152154176	no change	no change	1.03	-0.47	inactive
31	TNFRSF12A	SID134315154	no change	no change	0.56	2.14	inactive
32	ASPM	SID135623115	no change	no change	0.16	2.66	inactive
33	HNRNPA1	SID135621526	no change	no change	-0.59	-0.86	inactive

5 entries from above in another layout:
{"Gene":"CLN8","PubChem SID":"SID135622498","viability hit class":"no change","caspase hit class":"no change","viability robust z-score":1.66,"caspase robust z-score":0.15,"activity call":"inactive"}
{"Gene":"OPLAH","PubChem SID":"SID152151290","viability hit class":"no change","caspase hit class":"no change","viability robust z-score":0.5,"caspase robust z-score":3.94,"activity call":"inactive"}
{"Gene":"MRPL55","PubChem SID":"SID135623667","viability hit class":"no change","caspase hit class":"no change","viability robust z-score":0.76,"caspase robust z-score":-0.76,"activity call":"inactive"}
{"Gene":"SSR2","PubChem SID":"SID152154176","viability hit class":"no change","caspase hit class":"no change","viability robust z-score":1.03,"caspase robust z-score":-0.47,"activity call":"inactive"}
{"Gene":"TNFRSF12A","PubChem SID":"SID134315154","viability hit class":"no change","caspase hit class":"no change","viability robust z-score":0.56,"caspase robust z-score":2.14,"activity call":"inactive"}

Additional entries follow:
no.	Gene	PubChem SID	viability hit class	caspase hit class	viability robust z-score	caspase robust z-score	activity call
34	PLEKHF1	SID152155422	no change	no change	1.42	1.03	inactive
35	ADAM8	SID152149005	no change	no change	-2.01	2.49	inactive
36	THYN1	SID134324354	no change	no change	0.7	0.3	inactive
37	ARK2N	SID152151604	no change	no change	0.8	-0.31	inactive
38	FAM120B	SID134318984	no change	no change	1	1.04	inactive
39	RLN1	SID135623326	no change	no change	0.08	0.5	inactive
40	SNCA	SID134315468	no change	no change	-0.38	0.35	inactive
41	EGR2	SID134311851	no change	no change	-0.64	-0.22	inactive
42	HACL1	SID152148562	no change	no change	-1.51	4.15	inactive
43	CCDC146	SID135625200	no change	no change	0.36	-0.88	inactive
44	COL6A3	SID135620714	no change	no change	-0.46	1.58	inactive
45	ABTB3	SID135623014	no change	no change	0.59	0.03	inactive
46	NBEA	SID152150052	no change	no change	-0.76	-0.65	inactive
47	CC2D1A	SID152153836	no change	no change	-0.95	-0.6	inactive
48	SNX27	SID152149866	no change	no change	-1.48	4.05	inactive
49	GABRD	SID134311590	no change	no change	1.06	-0.14	inactive
50	SRI	SID135623820	no change	no change	0.08	2.12	inactive
51	OR2Y1	SID134329776	no change	no change	1.35	3.47	inactive
52	GLIPR2	SID135623216	no change	no change	-0.1	-1.17	inactive
53	SELENON	SID134318052	no change	no change	-0.23	-0.19	inactive
54	CNNM3	SID152154158	no change	no change	-0.72	-0.14	inactive
55	HHIPL2	SID135623173	no change	no change	1.14	0.94	inactive
56	SLC71A2	SID152148744	no change	no change	-0.77	-0.34	inactive
57	EPN1	SID134310594	no change	no change	0.04	0.36	inactive
58	ARID3C	SID152149809	no change	no change	-0.58	-0.92	inactive
59	NOLC1	SID152149439	no change	no change	-0.82	1.42	inactive
60	VRK3	SID135620981	no change	no change	0.68	0.28	inactive
61	ADGRF5	SID135621019	no change	no change	0.69	-0.3	inactive
62	LTBR	SID134312955	no change	no change	-1.08	0.35	inactive
63	MTIF2	SID135622108	no change	no change	1.57	0.62	inactive
64	GCNA	SID152147932	no change	no change	1.25	-0.55	inactive
65	CDA	SID135622352	no change	no change	-1.43	-1.09	inactive
66	RDH8	SID152156746	no change	no change	0.7	0.18	inactive
67	GNGT2	SID135622245	no change	no change	-1.04	0.88	inactive
68	GNB1	SID134321191	no change	no change	0.28	-0.9	inactive
69	THOC1	SID152149496	no change	no change	-1.22	4.58	inactive
70	NABP1	SID135622698	no change	no change	0.4	0.72	inactive
71	PTPN21	SID152155455	no change	no change	-0.09	-0.25	inactive
72	BTN2A3P	SID135624186	no change	no change	-0.06	0.18	inactive
73	RTEL1	SID134317606	no change	no change	-1.15	0.55	inactive
